# Measured values published in the supplement of paper PMC4635364.
# Where a name gives a salt, the structure may show the parent alone. This is one part of the list. Repeats in this data set agree poorly, so a single value says little.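 Human fetal ventral-midbrain neural progenitor line ReNCell VM, differentiated without mitogens. Images stained for doublecortin (early neurons) or tyrosine hydroxylase (dopaminergic neurons) were scored by blinded raters against untreated wells (0 = no change). Repeats and both raters were averaged, and compounds averaging 2 or higher were picked as hits for retesting.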
# Key:
# ReNCell VM [1] = assay: neuronal differentiation score (DCX+ cell fraction vs untreated, manual image score) (score (-3 to 3)); higher = more neuronal differentiation; conditions: 2 uM, 2 weeks
# ReNCell VM [2] = assay: dopaminergic neuron differentiation score (TH+ cell fraction vs untreated, manual image score) (score (0 to 3)); higher = more TH+ dopaminergic neuron differentiation; conditions: 2 uM, 4 weeks, BDNF 10 ng/ml + GDNF 10 ng/ml
smiles,measurement,setting,value
Nc1cc(-c2ccncc2)c[nH]c1=O,neuronal differentiation score,ReNCell VM [1]; library: Spectrum,inactive: 1
same,dopaminergic neuron differentiation score,ReNCell VM [2]; library: Spectrum,inactive: 1
CC1CC(OC(=O)C(O)c2ccccc2)CC(C)(C)N1C (stereo not given),neuronal differentiation score,ReNCell VM [1]; library: Spectrum,inactive: 0
same,dopaminergic neuron differentiation score,ReNCell VM [2]; library: Spectrum,inactive: 0
N=C(N)NCc1cccc(I)c1 [Iobenguane sulfate],neuronal differentiation score,ReNCell VM [1]; library: Prestwick,inactive: 0
same,dopaminergic neuron differentiation score,ReNCell VM [2]; library: Prestwick,inactive: 0
CCC(CC)(CC(=O)Nc1cccc(/C=C/c2nc(C3CCC3)cs2)c1)C(=O)O [Cinalukast],neuronal differentiation score,ReNCell VM [1]; library: Tocriscreen,inactive: 0
same,dopaminergic neuron differentiation score,ReNCell VM [2]; library: Tocriscreen,inactive: 0
CC(C)CCC[C@@H](C)[C@H]1CC[C@H]2[C@@H]3CC(=O)[C@H]4C[C@@H](O)CC[C@]4(C)[C@H]3CC[C@]12C [5alpha-CHOLESTAN-3beta-OL-6-ONE],neuronal differentiation score,ReNCell VM [1]; library: Spectrum,inactive: 0
same,dopaminergic neuron differentiation score,ReNCell VM [2]; library: Spectrum,inactive: 0
Nc1ccc(O)c(C(=O)O)c1 [Mesalamine],neuronal differentiation score,ReNCell VM [1]; library: Prestwick,inactive: 0
same,dopaminergic neuron differentiation score,ReNCell VM [2]; library: Prestwick,inactive: 0
CCc1nc(N)nc(N)c1-c1ccc(Cl)cc1,neuronal differentiation score,ReNCell VM [1]; library: Spectrum,inactive: 0
same,dopaminergic neuron differentiation score,ReNCell VM [2]; library: Spectrum,inactive: 0
CC(C)CCCC(C)C1CCC2C3CCC4CC(O)CCC4(C)C3CCC12C (stereo not drawn) [5alpha-CHOLESTANOL],neuronal differentiation score,ReNCell VM [1]; library: Spectrum,inactive: 0
same,dopaminergic neuron differentiation score,ReNCell VM [2]; library: Spectrum,active: 3
C[C@@H]1O[C@@H](Oc2c(-c3ccc(O)c(O)c3)oc3cc(O)cc(O)c3c2=O)[C@H](O)[C@H](O)[C@H]1O,neuronal differentiation score,ReNCell VM [1]; library: Spectrum,inactive: 0
same,dopaminergic neuron differentiation score,ReNCell VM [2]; library: Spectrum,inactive: 0
N[C@@H](CS(=O)O)C(=O)O [L-Cysteinesulfinic Acid],neuronal differentiation score,ReNCell VM [1]; library: LOPAC,inactive: 0
same,dopaminergic neuron differentiation score,ReNCell VM [2]; library: LOPAC,inactive: 0
OC[C@H]1O[C@@H](n2cnc3c(NCc4ccco4)ncnc32)[C@H](O)[C@@H]1O,neuronal differentiation score,ReNCell VM [1]; library: Spectrum,inactive: 0
same,dopaminergic neuron differentiation score,ReNCell VM [2]; library: Spectrum,inactive: 0
COc1cnc(NS(=O)(=O)c2ccc(N)cc2)nc1 [Sulfameter],neuronal differentiation score,ReNCell VM [1]; library: Prestwick,inactive: 0
same,dopaminergic neuron differentiation score,ReNCell VM [2]; library: Prestwick,inactive: 0
COc1cc(NS(=O)(=O)c2ccc(N)cc2)nc(OC)n1 [Sulfadimethoxine],neuronal differentiation score,ReNCell VM [1]; library: Prestwick,inactive: 0
same,dopaminergic neuron differentiation score,ReNCell VM [2]; library: Prestwick,inactive: 0
CN1CCC[C@@H]1CCO[C@](C)(c1ccccc1)c1ccc(Cl)cc1,neuronal differentiation score,ReNCell VM [1]; library: Spectrum,inactive: 0
same,dopaminergic neuron differentiation score,ReNCell VM [2]; library: Spectrum,inactive: 0
N[C@@H](C(=O)N[C@@H]1C(=O)N2C(C(=O)O)=C(Cl)CC[C@H]12)c1ccccc1 [Loracarbef],neuronal differentiation score,ReNCell VM [1]; library: Prestwick,inactive: 0
same,dopaminergic neuron differentiation score,ReNCell VM [2]; library: Prestwick,inactive: 0
CC(C)C[C@H](NC(=O)[C@H]1O[C@@H]1C(=O)O)C(=O)NCCCCN=C(N)N,neuronal differentiation score,ReNCell VM [1]; library: LOPAC,inactive: 0
same,dopaminergic neuron differentiation score,ReNCell VM [2]; library: LOPAC,inactive: 0
COc1cc(OC)c2c(=O)cc(-c3ccccc3)oc2c1,neuronal differentiation score,ReNCell VM [1]; library: Spectrum,inactive: 0
same,dopaminergic neuron differentiation score,ReNCell VM [2]; library: Spectrum,inactive: 0
COc1ccc(Cl)cc1C(=O)NCCc1ccc(S(=O)(=O)NC(=O)NC2CCCCC2)cc1 [Glybenclamide],neuronal differentiation score,ReNCell VM [1]; library: LOPAC,inactive: 0
same,dopaminergic neuron differentiation score,ReNCell VM [2]; library: LOPAC,inactive: 1
O=C(/C=C/c1ccc(O)c(O)c1)O[C@H](Cc1ccc(O)c(O)c1)C(=O)O,neuronal differentiation score,ReNCell VM [1]; library: Spectrum,inactive: 0
same,dopaminergic neuron differentiation score,ReNCell VM [2]; library: Spectrum,inactive: 0
COc1ccc(-c2cc(=O)c3c(O)cc(O[C@@H]4O[C@H](CO[C@@H]5O[C@@H](C)[C@H](O)[C@@H](O)[C@H]5O)[C@@H](O)[C@H](O)[C@H]4O)cc3o2)cc1O,neuronal differentiation score,ReNCell VM [1]; library: Spectrum,inactive: 0
same,dopaminergic neuron differentiation score,ReNCell VM [2]; library: Spectrum,inactive: 0
O=C(O)Cn1c(C(=O)Nc2nc(-c3ccccc3Cl)cs2)cc2ccccc21,neuronal differentiation score,ReNCell VM [1]; library: Tocriscreen,inactive: 0
same,dopaminergic neuron differentiation score,ReNCell VM [2]; library: Tocriscreen,inactive: 0
CC[N+](CC)(CC(=O)Nc1c(C)cccc1C)Cc1ccccc1 [Denatonium benzoate],neuronal differentiation score,ReNCell VM [1]; library: Prestwick,inactive: 0
same,dopaminergic neuron differentiation score,ReNCell VM [2]; library: Prestwick,inactive: 0
O=C(O)C1(C(=O)O)CCC1.[NH2-].[NH2-].[Pt+2],neuronal differentiation score,ReNCell VM [1]; library: Spectrum,inactive: 0
same,dopaminergic neuron differentiation score,ReNCell VM [2]; library: Spectrum,inactive: 0
COc1ccc(CC(=O)NC(/N=C(\NC#N)Nc2cccc3ncccc23)C(C)(C)C)cc1OC (stereo not given),neuronal differentiation score,ReNCell VM [1]; library: Tocriscreen,inactive: 0
same,dopaminergic neuron differentiation score,ReNCell VM [2]; library: Tocriscreen,inactive: 1
CNC(=C[N+](=O)[O-])NCCSCc1csc(CN(C)C)n1,neuronal differentiation score,ReNCell VM [1]; library: Spectrum,inactive: 0
same,dopaminergic neuron differentiation score,ReNCell VM [2]; library: Spectrum,inactive: 0
CC(N)C(=O)OC(C)(C)Cc1ccc(Cl)cc1 (stereo not given) [Alaproclate hydrochloride],neuronal differentiation score,ReNCell VM [1]; library: LOPAC,inactive: 0
same,dopaminergic neuron differentiation score,ReNCell VM [2]; library: LOPAC,inactive: 0
C[C@H]1[C@H](C)CC[C@]2(C(=O)O)CC[C@]3(C)C(=CC[C@@H]4[C@@]5(C)CC[C@H](O)C(C)(C)[C@@H]5CC[C@]43C)[C@H]12 [Ursolic acid],neuronal differentiation score,ReNCell VM [1]; library: Phytochemical,inactive: 0
same,dopaminergic neuron differentiation score,ReNCell VM [2]; library: Phytochemical,inactive: 0
COC(=O)C(C)(N)Cc1ccc(O)cc1 (racemic) [alpha-Methyl-DL-tyrosine methyl ester hydrochloride],neuronal differentiation score,ReNCell VM [1]; library: LOPAC,inactive: 0
same,dopaminergic neuron differentiation score,ReNCell VM [2]; library: LOPAC,inactive: 1
O=C(Cc1ccccc1)Nc1nc2ccc(Cl)cc2c2nc(-c3ccco3)nn12,neuronal differentiation score,ReNCell VM [1]; library: Tocriscreen,inactive: -1
same,dopaminergic neuron differentiation score,ReNCell VM [2]; library: Tocriscreen,inactive: 0
COc1cc2occ(-c3ccc(OC)c(OC)c3OC)c(=O)c2cc1OC,neuronal differentiation score,ReNCell VM [1]; library: Spectrum,inactive: 0
same,dopaminergic neuron differentiation score,ReNCell VM [2]; library: Spectrum,inactive: 0
C[C@@H]1[C@H](O)[C@@H](C)/C=C/C=C/C=C/C=C/C=C/C=C/C=C/[C@H](O[C@@H]2O[C@H](C)[C@@H](O)[C@H](N)[C@@H]2O)C[C@@H]2O[C@](O)(C[C@@H](O)C[C@@H](O)[C@H](O)CC[C@@H](O)C[C@@H](O)CC(=O)O[C@H]1C)C[C@H](O)[C@H]2C(=O)O,neuronal differentiation score,ReNCell VM [1]; library: Spectrum,inactive: 0
same,dopaminergic neuron differentiation score,ReNCell VM [2]; library: Spectrum,inactive: 0
c1ccc2sc(N3CCN(Cc4ccc5c(c4)OCO5)CC3)nc2c1 [2-[1-(4-Piperonyl)piperazinyl]benzothiazole],neuronal differentiation score,ReNCell VM [1]; library: Tocriscreen,inactive: 0
same,dopaminergic neuron differentiation score,ReNCell VM [2]; library: Tocriscreen,active: 3
CC(=O)N[C@@H](CCC(=O)O)C(=O)O,neuronal differentiation score,ReNCell VM [1]; library: Spectrum,inactive: 0
same,dopaminergic neuron differentiation score,ReNCell VM [2]; library: Spectrum,inactive: 1
Cc1cc(=O)oc2c(O)c(O)ccc12,neuronal differentiation score,ReNCell VM [1]; library: Spectrum,inactive: 0
same,dopaminergic neuron differentiation score,ReNCell VM [2]; library: Spectrum,inactive: 0
Cc1c(Nc2ncccc2C(=O)O)cccc1C(F)(F)F [Flunixin meglumine],neuronal differentiation score,ReNCell VM [1]; library: Prestwick,active: 2
same,dopaminergic neuron differentiation score,ReNCell VM [2]; library: Prestwick,inactive: 0
CN(C)[C@@H]1C(O)=C(C(N)=O)C(=O)[C@@]2(O)C(O)=C3C(=O)c4c(O)ccc(Cl)c4[C@@H](O)[C@H]3C[C@@H]12,neuronal differentiation score,ReNCell VM [1]; library: Spectrum,inactive: 0
same,dopaminergic neuron differentiation score,ReNCell VM [2]; library: Spectrum,inactive: 0
"O=C1NC(=O)C(c2ccccc2)(c2ccccc2)N1 [5,5-Diphenylhydantoin]",neuronal differentiation score,ReNCell VM [1]; library: LOPAC,inactive: 0
same,dopaminergic neuron differentiation score,ReNCell VM [2]; library: LOPAC,inactive: 0
CC1OC2(CS1)CN1CCC2CC1 (stereo not given) [Cevimeline hydrochloride],neuronal differentiation score,ReNCell VM [1]; library: Tocriscreen,inactive: 0
same,dopaminergic neuron differentiation score,ReNCell VM [2]; library: Tocriscreen,inactive: 0
CCCCOc1cc(C(=O)NCCN(CC)CC)c2ccccc2n1,neuronal differentiation score,ReNCell VM [1]; library: Spectrum,inactive: 0
same,dopaminergic neuron differentiation score,ReNCell VM [2]; library: Spectrum,inactive: 1
CC(=O)O[C@@H]1C[C@H]2C(C)(C)[C@H](O)C[C@H](O)[C@]2(C)[C@H]2CC[C@@]3(C)[C@H](c4ccoc4)OC(=O)[C@H]4O[C@]43[C@@]21C,neuronal differentiation score,ReNCell VM [1]; library: Spectrum,inactive: 0
same,dopaminergic neuron differentiation score,ReNCell VM [2]; library: Spectrum,inactive: 0

# Fetched one by one from above, 5 records:
smiles,measurement,setting,value
N[C@@H](C(=O)N[C@@H]1C(=O)N2C(C(=O)O)=C(Cl)CC[C@H]12)c1ccccc1 [Loracarbef],neuronal differentiation score,ReNCell VM [1]; library: Prestwick,inactive: 0
CC1OC2(CS1)CN1CCC2CC1 (stereo not given) [Cevimeline hydrochloride],neuronal differentiation score,ReNCell VM [1]; library: Tocriscreen,inactive: 0
O=C(O)C1(C(=O)O)CCC1.[NH2-].[NH2-].[Pt+2],dopaminergic neuron differentiation score,ReNCell VM [2]; library: Spectrum,inactive: 0
Cc1c(Nc2ncccc2C(=O)O)cccc1C(F)(F)F [Flunixin meglumine],neuronal differentiation score,ReNCell VM [1]; library: Prestwick,active: 2
CNC(=C[N+](=O)[O-])NCCSCc1csc(CN(C)C)n1,neuronal differentiation score,ReNCell VM [1]; library: Spectrum,inactive: 0
